## Results from one PubChem assay

Source: PubChem BioAssay AID1035470 (Broad Institute, 2014).

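Fluorescent reporter signals from normal-ribosome and human-like mutant-ribosome bacteria, measured on a plate reader at 24 h. The value is the change in activity at the top tested concentration; more negative means stronger inhibition. Active means the normal-ribosome signal drops at least twice as much as the mutant signal without a large loss of growth; inconclusive means no clear call.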

All entries here are filed as inconclusive. Only part of the assay is shown, chiefly results filed as inconclusive.

compound	tested on / at	activity change
C[C@@H]1CN([C@H](C)CO)C(=O)c2cccc(NC(=O)Nc3ccc4c(c3)OCO4)c2O[C@@H]1CN(C)C(=O)Nc1ccc2c(c1)OCO2	at 50 µM (top of the series)	-6.737
CCOC(=O)c1cnc2c(ccc3ccccc32)c1NCCCN(C)C	at 50 µM (top of the series)	-25.87
c1ccc(CNc2ncnc3sccc23)cc1	at 50 µM (top of the series)	-11.31
C[C@@H]1CCCCO[C@@H](CN(C)C(=O)c2ccccc2)[C@H](C)CN([C@@H](C)CO)C(=O)c2cc(NC(=O)Cc3ccccc3)ccc2O1	at 50 µM (top of the series)	13.15
CCn1cc(Cl)c(C(=O)Nc2cccc(C(F)(F)F)c2)n1	at 50 µM (top of the series)	-14.58
O=C(c1ccco1)c1nnn(Cc2ccccc2)c1-c1ccccc1	at 50 µM (top of the series)	-38.88
c1ccc(-c2nc(-c3cccnc3)cs2)cc1	at 50 µM (top of the series)	-11.34
O=C1c2ccccc2S(=O)(=O)c2cc(N3CCC(C(=O)N4CCCCC4)CC3)ccc21	at 50 µM (top of the series)	-24.1
Cc1nc(Sc2ccc(Cl)cc2)c(C#N)c(C)c1[N+](=O)[O-]	at 50 µM (top of the series)	-35.52
CN(C)C(=O)c1cccc(-c2ccc(C3[C@H]4CNC[C@@H]3N4S(=O)(=O)c3ccccc3F)cc2)c1 (stereo partly drawn)	at 50 µM (top of the series)	-6.859
CC(C)(C)c1ccc(N2C(=O)CSC2c2cccnc2)cc1 (stereo not drawn)	at 50 µM (top of the series)	18.47
CCCC[n+]1ccn(-c2nc3ccccc3nc2[N-]S(=O)(=O)c2cccs2)c1	at 50 µM (top of the series)	-6.226
COc1ccc(NC(=O)Nc2cccc3c2O[C@@H](CN(C)S(=O)(=O)c2ccc(Cl)cc2)[C@H](C)CN([C@H](C)CO)C3=O)cc1	at 50 µM (top of the series)	-2.849
C=CCNC(=O)c1ccccc1NC(=O)c1ccc(Cl)c(S(=O)(=O)Nc2cccc(C)c2C)c1	at 26 µM (top of the series)	-30.11
C[C@H]1CCCCO[C@@H](CN(C)C)[C@@H](C)CN([C@@H](C)CO)C(=O)c2cc(NC(=O)Nc3cccc4ccccc34)ccc2O1	at 50 µM (top of the series)	-12.62
COC(=O)c1cc2c(c3c4cc(F)ccc4n(S(=O)(=O)c4ccccc4)c13)C(=O)N(Cc1ccco1)C2	at 50 µM (top of the series)	-7.459
CN1C(=O)c2ccccc2OC1(C)Cc1ccccc1 (stereo not drawn)	at 50 µM (top of the series)	-22.94
O=[N+]([O-])c1cccnc1N1CCN(c2ccc(F)cc2)CC1	at 50 µM (top of the series)	-35.07
C[C@@H]1CCCCO[C@H](CN(C)C)[C@H](C)CN([C@@H](C)CO)C(=O)c2cc(NC(=O)Nc3cccc4ccccc34)ccc2O1	at 50 µM (top of the series)	9.12
CN1CCN(C(=O)C[C@H]2CC[C@H]3[C@@H](COC[C@H](O)CN3C(=O)Nc3ccc(Cl)cc3)O2)CC1	at 50 µM (top of the series)	-67.95
COc1cc(C(=O)Nc2nnc(S(=O)(=O)N3CCCCCC3)s2)cc(OC)c1OC	at 50 µM (top of the series)	-42.75
COCCNc1cc(-c2ccccc2)nc2cc(-c3cccc(F)c3)nn12	at 50 µM (top of the series)	4.076
CC(Nc1ncnc2ccccc12)c1ccccc1 (stereo not drawn)	at 50 µM (top of the series)	-14.62
O=C(NC1CCCC1)c1ccc([N+](=O)[O-])s1	at 50 µM (top of the series)	1.599
Cc1cccc(CN2C(=O)c3ccccc3Sc3ccc(C(=O)NCCN4CCOCC4)cc32)c1	at 50 µM (top of the series)	-13.93
COc1ccc(NC(=O)c2cccnc2SC)cc1S(=O)(=O)N1CCCCC1	at 50 µM (top of the series)	-23.96

Repeated from the top, 3 entries:

compound,tested on / at,activity change
C[C@@H]1CN([C@H](C)CO)C(=O)c2cccc(NC(=O)Nc3ccc4c(c3)OCO4)c2O[C@@H]1CN(C)C(=O)Nc1ccc2c(c1)OCO2,at 50 µM (top of the series),-6.737
CCOC(=O)c1cnc2c(ccc3ccccc32)c1NCCCN(C)C,at 50 µM (top of the series),-25.87
c1ccc(CNc2ncnc3sccc23)cc1,at 50 µM (top of the series),-11.31